PubChem BioAssay AID686938 – Drosophila RNAi Screening Center, 2013
Purpose: 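Knock-downs reducing store-operated calcium influx in Drosophila cells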 (primary screen). Cells: Drosophila S2R+ cells. Reagents: long dsRNA against Drosophila genes, about 0.25 µg dsRNA per well, roughly 10,000 cells. Time to read-out: 5 days of knock-down before the calcium assay. Treatment: thapsigargin (SERCA pump blocker) to empty calcium stores; entry signal taken 4 min after adding it. Measurement: 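Duplicate raw fluo-4 intensities per well from a plate reader, at rest and four minutes after thapsigargin emptied calcium stores; entry-to-rest ratio filled for only some wells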. Direction: calcium entry signal: higher = stronger calcium signal after store depletion; resting calcium signal: higher = higher resting calcium signal. Call rule: 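Hit if the duplicate-averaged plate z-score for entry over resting signal is under −3; wells with weak total dye signal (Fmax z < −2) or more than 5 off-targets removed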. Meaning of the calls: active = strongly reduced calcium entry; inactive = no strong reduction.
The screen tested about 23,000 reagents; below is a random part of those with a known target gene and a result. Of all reagents, 75 (0.33%) were called active. 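Raw plate signals without normalisation; calls rest on plate z-scores that were not deposited; ratio present for only 364 wells.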 Reagents against one gene are numbered here. Names joined by + are all predicted targets of the reagent. No sequences are given here. Not stated in the record: the dose of the treatment.

no.	Target gene	dsRNA no.	calcium entry signal, replicate 1 (fluorescence units)	calcium entry signal, replicate 2 (fluorescence units)	resting calcium signal, replicate 1 (fluorescence units)	resting calcium signal, replicate 2 (fluorescence units)	Call
1	CG4744	1	2.20e7	2.73e7	9.82e6	1.23e7	inactive
2	CG17294	1	4.74e7		2.17e7		inactive
3	ItgaPS5	1	4.56e7	4.97e7	2.32e7	2.24e7	inactive
4	CG13907	1	2.64e7	2.11e7	1.30e7	1.08e7	inactive
5	Dera	1	3.46e7	4.41e7	1.44e7	2.09e7	inactive
6	Dera	2	2.51e7	3.07e7	1.23e7	1.42e7	inactive
7	CG8915	1	3.11e7	3.36e7	1.58e7	1.57e7	inactive
8	Snx1	1	4.69e7	4.90e7	2.14e7	2.08e7	inactive
9	Rack1	1	3.29e7	3.74e7	1.30e7	1.58e7	inactive
10	CG8329	1	4.75e7	3.78e7	3.15e7	1.66e7	inactive
11	Prp16	1	1.66e7	2.07e7	8.24e6	1.01e7	inactive
12	Prp16	2	2.47e7	2.41e7	1.38e7	1.29e7	inactive
13	CG10809	1	2.61e7	4.65e7	1.41e7	1.96e7	inactive
14	CG10911	1	3.90e7	3.94e7	1.83e7	1.94e7	inactive
15	CG8272	1	4.92e7	4.82e7	2.04e7	2.24e7	inactive

The list goes on, starting with the last 3 of the part before.
no.	Target gene	dsRNA no.	calcium entry signal, replicate 1 (fluorescence units)	calcium entry signal, replicate 2 (fluorescence units)	resting calcium signal, replicate 1 (fluorescence units)	resting calcium signal, replicate 2 (fluorescence units)	Call
13	CG10809	1	2.61e7	4.65e7	1.41e7	1.96e7	inactive
14	CG10911	1	3.90e7	3.94e7	1.83e7	1.94e7	inactive
15	CG8272	1	4.92e7	4.82e7	2.04e7	2.24e7	inactive
16	TwdlO	1	1.93e7	3.45e7	1.07e7	1.49e7	inactive
17	Gr59b	1	4.53e7	5.11e7	2.22e7	2.34e7	inactive
18	NimC3	1	4.61e7	3.25e7	2.13e7	1.47e7	inactive
19	NimC3	2	3.40e7	2.51e7	1.63e7	1.06e7	inactive
20	CG32536 + CG32537	1	4.99e7	3.81e7	2.42e7	1.83e7	inactive
21	Task7	1	2.46e7	2.45e7	1.35e7	1.40e7	inactive
22	atms	1	2.27e7	2.49e7	1.31e7	1.76e7	inactive
23	Rpt2	1	1.67e7	1.55e7	1.36e7	1.15e7	inactive
24	Drsl5	1	2.47e7	3.27e7	1.38e7	1.63e7	inactive
